The list shows a part of the results. These are further read-outs of the screen, such as a control signal, another cell line or another target. No call is given for them. The list favours compounds with an active or inconclusive main result. Words in brackets tell the shape of the fitted curve; partial curves, single points and poor fits give uncertain potencies.
Experiment: IkB Signaling
Conditions: ABC-DLBCL IkBa-CBG/CBR dual luciferase ratio (green luciferase fused to IkBa over red control in OCI-Ly3 lymphoma cells), 4 h; measured here: control luc red channel unless noted
In short: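 Curves were fitted separately to fusion (green), unfused (red) and ratio luminescence, then classed by r2, magnitude and activity. Cells: OCI-Ly3, 4 h compound plus doxycycline at 37C; 10 uM MG-132 defined full response.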
For `CCCCN1C(=O)c2[nH]nc(-c3ccccc3O)c2C1c1ccc(OCc2ccccc2)c(OC)c1` (configuration not stated), the AC50 was 20 µM [falling, partial curve].
In the case of `COc1ccc(Cn2ccc3nc(C)c(C(=O)N4CCN(c5ccc(F)cc5)CC4)cc3c2=O)cc1`, the AC50 is reported as 25.1 µM [falling, partial curve].
For `Cc1ccc(Sc2c(C)nn(C(C)(C)C)c2OC(=O)CC(C)C)cc1`, the AC50 was 39.8 µM [falling, partial curve, poor fit].
For `CCOC(=O)c1cccc(NC(=O)CCc2c(C)nn(-c3ccc(N4CCCCC4)nn3)c2C)c1`, the AC50 was 39.8 µM [falling, single point].
In the case of `Cc1cccc(NC(=O)C2CCCN(C(=O)NC3CCCCC3)C2)c1C` (configuration not stated), the AC50 is reported as 5.01 µM [rising, partial curve] [measured here: IkB-luc green channel].
In the case of `CC(C)CCNc1nc2c(-c3ccccc3)nnn2c2ccccc12`, the AC50 is reported as 25.1 µM [falling, single point].
With `CCOc1ccc(CNC(=O)c2ccc(CSc3nc4ccncc4n3Cc3ccc(F)cc3)cc2)cc1` the AC50 was 31.6 µM [falling, single point].
With `CCCOc1ccc2c3c(c(=O)oc2c1OCCC)CCC3` the AC50 was 20 µM [falling, partial curve].
For `COc1cccc(NC(=O)c2oc3ccccc3c2NC(=O)c2ccccc2C)c1`, the AC50 was 15.8 µM [falling, single point].
For `COc1cccc(C(=O)Nc2ccc3nc(N4CCOCC4)cc(C)c3c2)c1`, the AC50 was 15.8 µM [falling, partial curve].
For `Cc1nn(-c2ccccc2)c2nc(C3CC3)cc(C(=O)Nc3cccc(F)c3)c12`, the AC50 was 12.6 µM [falling, partial curve].
With `COc1ccc(C(=O)Nc2ccc3nc(SCC(=O)N4CCCc5ccccc54)sc3c2)cc1` the AC50 was 2 µM [falling, partial curve].
For `CCN(CC)C(=O)c1sc2c(c1C)c(=O)n(-c1ccc(Cl)c(Cl)c1)c(=O)n2Cc1cc(=O)n2c(C)cccc2n1`, the AC50 was 0.0126 µM [rising, full curve, poor fit].
With `COc1ccc(CC(=O)Nc2oc(-c3ccccc3)c(-c3ccccc3)c2C#N)cc1OC` the AC50 was 3.16 µM [falling, full curve].
In the case of `O=C(NCCc1ccccn1)c1n[nH]c(=O)c2ccccc12`, the AC50 is reported as 39.8 µM [falling, single point].
With `Cc1ccc(-c2nc(C)c(CCNS(=O)(=O)c3ccccc3F)s2)cc1` the AC50 was 0.251 µM [falling, full curve, poor fit].
In the case of `COc1cc(NS(C)(=O)=O)ccc1Nc1c2ccccc2nc2ccccc12`, the AC50 is reported as 20 µM [falling, partial curve] [measured here: IkB-luc green channel].
